# Laboratory results: the supplement of paper PMC12823440, “Inhibitors supercharge kinase turnover through native proteolytic circuits” (Nature, 2025)
# Sequences of proteins named here, by UniProt entry; tags and fusion partners are left off. A change or cut given only in a name is not applied to a line headed by its entry.
# UniProt O96013: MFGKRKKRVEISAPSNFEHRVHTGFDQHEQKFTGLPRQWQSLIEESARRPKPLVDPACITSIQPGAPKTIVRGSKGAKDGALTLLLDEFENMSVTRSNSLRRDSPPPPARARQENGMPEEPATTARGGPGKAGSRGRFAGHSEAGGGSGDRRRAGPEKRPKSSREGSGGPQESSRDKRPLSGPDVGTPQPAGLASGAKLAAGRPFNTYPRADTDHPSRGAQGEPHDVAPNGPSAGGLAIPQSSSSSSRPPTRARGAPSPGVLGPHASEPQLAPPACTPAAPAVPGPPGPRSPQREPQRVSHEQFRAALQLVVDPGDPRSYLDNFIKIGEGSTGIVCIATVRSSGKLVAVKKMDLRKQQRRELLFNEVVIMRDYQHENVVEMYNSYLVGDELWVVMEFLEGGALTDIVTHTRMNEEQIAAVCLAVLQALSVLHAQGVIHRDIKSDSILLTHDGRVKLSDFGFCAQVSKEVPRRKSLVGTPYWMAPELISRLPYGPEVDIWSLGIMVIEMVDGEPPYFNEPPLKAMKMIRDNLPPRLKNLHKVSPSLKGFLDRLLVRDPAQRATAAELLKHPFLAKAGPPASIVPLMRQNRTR
# UniProt Q96KB5: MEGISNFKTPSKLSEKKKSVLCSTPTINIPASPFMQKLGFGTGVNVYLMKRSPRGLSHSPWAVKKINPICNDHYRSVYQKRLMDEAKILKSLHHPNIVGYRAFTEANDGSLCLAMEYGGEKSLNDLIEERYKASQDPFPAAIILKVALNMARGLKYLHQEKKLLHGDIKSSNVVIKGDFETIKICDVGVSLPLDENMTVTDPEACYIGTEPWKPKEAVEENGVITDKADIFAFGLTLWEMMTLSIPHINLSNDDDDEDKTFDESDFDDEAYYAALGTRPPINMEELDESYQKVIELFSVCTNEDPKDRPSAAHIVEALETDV
# UniProt P09619, whole entry: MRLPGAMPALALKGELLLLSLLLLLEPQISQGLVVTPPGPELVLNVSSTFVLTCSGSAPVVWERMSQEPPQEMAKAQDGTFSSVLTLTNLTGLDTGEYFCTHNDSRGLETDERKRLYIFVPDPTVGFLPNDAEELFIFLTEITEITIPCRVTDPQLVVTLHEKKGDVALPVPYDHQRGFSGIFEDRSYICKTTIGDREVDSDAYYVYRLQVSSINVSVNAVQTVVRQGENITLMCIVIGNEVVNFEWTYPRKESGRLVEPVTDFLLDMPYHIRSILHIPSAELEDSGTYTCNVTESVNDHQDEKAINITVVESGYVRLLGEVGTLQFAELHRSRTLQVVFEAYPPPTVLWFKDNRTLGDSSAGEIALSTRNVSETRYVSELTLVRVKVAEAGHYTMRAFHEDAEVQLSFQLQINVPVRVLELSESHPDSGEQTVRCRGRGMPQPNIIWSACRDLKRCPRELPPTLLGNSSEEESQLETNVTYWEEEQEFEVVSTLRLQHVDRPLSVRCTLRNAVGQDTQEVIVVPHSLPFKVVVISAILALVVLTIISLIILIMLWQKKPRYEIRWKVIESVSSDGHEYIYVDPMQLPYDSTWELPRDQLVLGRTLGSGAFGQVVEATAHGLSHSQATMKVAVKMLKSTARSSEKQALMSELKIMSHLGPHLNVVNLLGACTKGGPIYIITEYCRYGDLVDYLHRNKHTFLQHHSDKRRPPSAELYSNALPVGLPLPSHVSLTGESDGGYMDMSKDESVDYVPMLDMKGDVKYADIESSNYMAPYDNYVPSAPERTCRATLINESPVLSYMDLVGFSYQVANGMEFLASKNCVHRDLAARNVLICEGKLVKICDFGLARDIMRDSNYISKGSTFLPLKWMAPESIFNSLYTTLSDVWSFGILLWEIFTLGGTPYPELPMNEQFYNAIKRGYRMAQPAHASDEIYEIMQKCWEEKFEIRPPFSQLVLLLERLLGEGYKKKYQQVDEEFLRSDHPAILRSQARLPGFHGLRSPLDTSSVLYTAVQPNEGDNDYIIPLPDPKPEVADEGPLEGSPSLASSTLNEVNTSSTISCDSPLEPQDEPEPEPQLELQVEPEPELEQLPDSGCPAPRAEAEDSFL
# UniProt Q15118, whole entry, looked up: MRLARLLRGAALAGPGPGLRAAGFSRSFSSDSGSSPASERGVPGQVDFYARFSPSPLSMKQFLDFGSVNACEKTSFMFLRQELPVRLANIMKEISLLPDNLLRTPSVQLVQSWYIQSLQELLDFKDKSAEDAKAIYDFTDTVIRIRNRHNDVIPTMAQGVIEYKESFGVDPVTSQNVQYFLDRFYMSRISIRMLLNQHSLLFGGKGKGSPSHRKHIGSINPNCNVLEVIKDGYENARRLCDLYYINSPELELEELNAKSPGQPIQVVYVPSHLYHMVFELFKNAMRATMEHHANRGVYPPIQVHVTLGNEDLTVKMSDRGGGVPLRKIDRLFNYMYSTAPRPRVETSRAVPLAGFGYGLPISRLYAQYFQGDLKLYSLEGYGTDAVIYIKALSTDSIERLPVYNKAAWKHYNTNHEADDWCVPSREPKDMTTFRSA
# UniProt O15530: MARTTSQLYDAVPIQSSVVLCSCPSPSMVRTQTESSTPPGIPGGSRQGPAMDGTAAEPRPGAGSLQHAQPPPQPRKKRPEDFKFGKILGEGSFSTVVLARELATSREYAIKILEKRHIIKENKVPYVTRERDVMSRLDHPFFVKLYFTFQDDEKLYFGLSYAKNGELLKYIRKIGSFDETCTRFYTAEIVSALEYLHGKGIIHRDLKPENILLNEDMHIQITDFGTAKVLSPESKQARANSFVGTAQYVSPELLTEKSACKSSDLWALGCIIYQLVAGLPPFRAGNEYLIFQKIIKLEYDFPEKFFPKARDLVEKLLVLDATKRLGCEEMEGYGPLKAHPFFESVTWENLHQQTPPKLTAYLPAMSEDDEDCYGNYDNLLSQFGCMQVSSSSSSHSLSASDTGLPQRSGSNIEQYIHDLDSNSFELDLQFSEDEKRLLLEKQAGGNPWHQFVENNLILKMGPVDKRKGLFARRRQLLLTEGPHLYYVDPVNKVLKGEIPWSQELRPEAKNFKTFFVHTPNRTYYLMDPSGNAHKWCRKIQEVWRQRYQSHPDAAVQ
# UniProt P42356, whole entry, looked up: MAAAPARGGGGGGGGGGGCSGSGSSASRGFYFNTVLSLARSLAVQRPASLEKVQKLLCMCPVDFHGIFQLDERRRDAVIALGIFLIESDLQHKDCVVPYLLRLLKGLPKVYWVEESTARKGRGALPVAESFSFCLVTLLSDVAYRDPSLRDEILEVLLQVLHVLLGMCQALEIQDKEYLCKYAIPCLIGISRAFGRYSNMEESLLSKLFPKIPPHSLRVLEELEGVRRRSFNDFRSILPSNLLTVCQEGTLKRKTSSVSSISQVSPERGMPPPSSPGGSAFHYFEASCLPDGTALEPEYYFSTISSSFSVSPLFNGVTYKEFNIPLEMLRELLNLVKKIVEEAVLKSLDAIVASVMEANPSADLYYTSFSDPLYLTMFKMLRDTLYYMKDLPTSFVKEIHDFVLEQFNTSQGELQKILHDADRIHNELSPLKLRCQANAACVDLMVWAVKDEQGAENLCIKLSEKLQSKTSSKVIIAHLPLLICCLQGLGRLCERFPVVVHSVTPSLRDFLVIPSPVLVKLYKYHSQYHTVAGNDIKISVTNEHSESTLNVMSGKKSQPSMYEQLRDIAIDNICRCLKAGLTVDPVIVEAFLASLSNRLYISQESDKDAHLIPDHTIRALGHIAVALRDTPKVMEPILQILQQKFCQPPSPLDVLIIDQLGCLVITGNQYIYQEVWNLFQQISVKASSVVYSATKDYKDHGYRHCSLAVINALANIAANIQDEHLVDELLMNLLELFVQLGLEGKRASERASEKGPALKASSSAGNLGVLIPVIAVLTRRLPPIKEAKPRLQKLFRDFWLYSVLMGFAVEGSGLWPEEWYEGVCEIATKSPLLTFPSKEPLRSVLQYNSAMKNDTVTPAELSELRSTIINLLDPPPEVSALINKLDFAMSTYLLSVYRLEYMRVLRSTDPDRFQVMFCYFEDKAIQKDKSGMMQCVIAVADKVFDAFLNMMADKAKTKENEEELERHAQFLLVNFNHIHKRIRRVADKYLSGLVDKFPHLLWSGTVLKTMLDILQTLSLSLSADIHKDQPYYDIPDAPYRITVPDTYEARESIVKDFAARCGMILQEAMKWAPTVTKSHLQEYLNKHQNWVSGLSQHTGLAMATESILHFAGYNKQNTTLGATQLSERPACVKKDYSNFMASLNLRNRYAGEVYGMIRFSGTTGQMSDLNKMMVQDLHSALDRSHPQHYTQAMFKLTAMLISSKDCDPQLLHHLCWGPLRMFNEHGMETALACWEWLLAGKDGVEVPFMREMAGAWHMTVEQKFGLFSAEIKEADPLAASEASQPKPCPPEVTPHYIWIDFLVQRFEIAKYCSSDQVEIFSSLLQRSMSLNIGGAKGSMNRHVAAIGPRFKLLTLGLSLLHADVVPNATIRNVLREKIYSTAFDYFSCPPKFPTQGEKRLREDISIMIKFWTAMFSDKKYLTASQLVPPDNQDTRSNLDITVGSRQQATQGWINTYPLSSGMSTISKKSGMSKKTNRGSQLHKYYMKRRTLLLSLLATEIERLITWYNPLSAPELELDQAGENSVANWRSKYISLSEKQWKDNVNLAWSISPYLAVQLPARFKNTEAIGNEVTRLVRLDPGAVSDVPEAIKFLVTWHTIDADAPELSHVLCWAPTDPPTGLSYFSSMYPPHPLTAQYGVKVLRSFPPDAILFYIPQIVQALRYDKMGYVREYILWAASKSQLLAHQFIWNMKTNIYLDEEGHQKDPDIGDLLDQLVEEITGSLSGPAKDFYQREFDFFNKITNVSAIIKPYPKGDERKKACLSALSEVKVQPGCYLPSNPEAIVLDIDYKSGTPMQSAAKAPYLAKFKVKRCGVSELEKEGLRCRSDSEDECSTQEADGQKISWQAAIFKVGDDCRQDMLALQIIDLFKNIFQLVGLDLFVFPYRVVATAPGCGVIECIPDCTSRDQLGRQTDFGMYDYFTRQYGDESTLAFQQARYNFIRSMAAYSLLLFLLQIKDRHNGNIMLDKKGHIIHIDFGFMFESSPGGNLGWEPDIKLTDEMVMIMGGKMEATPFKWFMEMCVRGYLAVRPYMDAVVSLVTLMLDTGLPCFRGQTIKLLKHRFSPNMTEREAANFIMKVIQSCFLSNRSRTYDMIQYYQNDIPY
# UniProt P53350, whole entry: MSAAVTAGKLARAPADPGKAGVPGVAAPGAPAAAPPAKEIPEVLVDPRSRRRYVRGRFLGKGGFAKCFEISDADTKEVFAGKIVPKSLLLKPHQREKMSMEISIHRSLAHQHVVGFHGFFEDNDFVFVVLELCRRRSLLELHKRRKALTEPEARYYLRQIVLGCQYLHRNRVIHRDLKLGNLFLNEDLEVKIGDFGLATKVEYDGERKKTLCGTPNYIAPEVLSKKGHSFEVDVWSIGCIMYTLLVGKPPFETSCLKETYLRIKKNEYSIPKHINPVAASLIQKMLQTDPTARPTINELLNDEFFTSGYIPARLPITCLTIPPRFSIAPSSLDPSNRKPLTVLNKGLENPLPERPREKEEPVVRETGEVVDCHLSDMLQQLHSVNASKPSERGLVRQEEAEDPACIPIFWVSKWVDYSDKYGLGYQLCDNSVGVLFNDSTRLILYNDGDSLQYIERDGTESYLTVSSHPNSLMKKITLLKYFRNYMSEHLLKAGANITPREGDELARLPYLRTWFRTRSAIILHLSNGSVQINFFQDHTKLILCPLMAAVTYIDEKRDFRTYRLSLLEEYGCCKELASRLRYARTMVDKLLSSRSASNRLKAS
# UniProt Q13131: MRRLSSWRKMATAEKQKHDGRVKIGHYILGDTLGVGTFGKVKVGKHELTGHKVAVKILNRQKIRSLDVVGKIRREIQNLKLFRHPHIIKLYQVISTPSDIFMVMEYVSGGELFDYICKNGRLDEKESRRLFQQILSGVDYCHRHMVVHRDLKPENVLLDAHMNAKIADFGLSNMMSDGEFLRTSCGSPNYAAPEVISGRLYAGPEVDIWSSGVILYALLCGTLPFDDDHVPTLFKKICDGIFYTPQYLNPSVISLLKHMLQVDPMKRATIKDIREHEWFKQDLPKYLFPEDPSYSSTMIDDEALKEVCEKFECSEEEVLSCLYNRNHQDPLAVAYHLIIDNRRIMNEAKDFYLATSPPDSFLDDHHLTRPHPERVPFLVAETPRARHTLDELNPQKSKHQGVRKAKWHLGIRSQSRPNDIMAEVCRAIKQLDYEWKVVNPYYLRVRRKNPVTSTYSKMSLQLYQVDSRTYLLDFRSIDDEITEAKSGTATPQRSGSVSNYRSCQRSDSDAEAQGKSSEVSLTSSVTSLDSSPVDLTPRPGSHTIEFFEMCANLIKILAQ
# Counter-ions that a name gives are not always drawn. The list shows a part of the results. Hit calls seldom repeat between salt and free forms of one compound.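 Kinases, fused to nanoluciferase, were expressed in K562 cells; luminescence was measured every 4 h from 2 to 18 h as percent of control (DMSO = 100%, positive control = 0%). A time point is decreased if signal falls significantly (2 sigma). Hits were called by the authors by a rule that is not shown; the count of time points alone does not decide it.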
# Tests used:
# Test in all cases: number of time points (of 5) at which kinase-Nluc abundance scored as decreased, DMSO-normalised (count); higher = more persistent destabilization
# Conditions in all cases: K562; 2-18 h
# [1] = biological target: NTRK3 (UniProt Q16288)
# [2] = biological target: PAK4 (UniProt O96013)
# [3] = biological target: PBK (UniProt Q96KB5)
# [4] = biological target: PDGFRB (UniProt P09619)
# [5] = biological target: PDK1 (UniProt Q15118)
# [6] = biological target: PDPK1 (UniProt O15530)
# [7] = biological target: PIK4CA (UniProt P42356)
# [8] = biological target: PIK4CB (UniProt Q9UBF8)
# [9] = biological target: PLK1 (UniProt P53350)
# [10] = biological target: PRKAA1 (UniProt Q13131)
Compound,number of time points [1],number of time points [2],number of time points [3],number of time points [4],number of time points [5],number of time points [6],number of time points [7],number of time points [8],number of time points [9],number of time points [10]
COC(=O)N1CCN(C2CCC(Nc3nc(Nc4cnn(C)c4)nc4ccc(CC#N)nc34)CC2)CC1 (stereo unspecified) (10 µM),0,0,0,0,0,0,0,0,0,0
COCCOc1cnc2ccn([C@H](C)c3nnc4c(F)cc(-c5cnn(C)c5)cn34)c(=O)c2c1 (10 µM),0,0,0,0,0,0,0,0,0,0
O=C1C=CC2=C3c4cc(O)c(O)cc4CC3(O)COC2=C1O (stereo unspecified) [Hematein] (10 µM),0,0,0,0,0,0,0,0,0,0
CCCCC(=O)OCC(=O)[C@]1(O)Cc2c(O)c3c(c(O)c2[C@@H](O[C@H]2C[C@H](NC(=O)C(F)(F)F)[C@H](O)[C@H](C)O2)C1)C(=O)c1c(OC)cccc1C3=O [Valrubicin] (10 µM),0,0,0,0,0,0,0,0,0,0
CCOc1cc(=O)[nH]cc1-c1ccc(CC(=O)Nc2cc(C(C)(C)C(F)(F)F)on2)c(F)c1 (10 µM),0,0,0,0,0,0,0,0,0,0
CCCCNc1ncc(C(=O)NCc2ccc(-n3ccnc3)cc2)c(NC2CCC(O)CC2)n1 (stereo unspecified) (10 µM),0,0,0,0,0,0,0,2,0,0
N#Cc1cc(N2CCC(C(=O)N3N=CC[C@H]3c3cc(F)cc(F)c3)CC2)ncn1 (10 µM),0,0,0,0,0,0,0,0,0,0
CCCCNc1ncc2c(-c3ccc(F)cc3)nn(CC3CCC(N)CC3)c2n1 (stereo unspecified) (2.5 µM),0,0,0,0,0,0,0,0,0,0
O=C(COc1ccc(Cl)cc1)NC1CCC(NC(=O)COc2ccc(Cl)cc2)CC1 (stereo not drawn) [ISRIB (trans-isomer)] (10 µM),0,0,0,0,0,0,0,0,0,0
O=C(C#Cc1ccccc1)c1cccc([N+](=O)[O-])c1 (10 µM),0,0,0,0,0,0,0,0,0,0
Nc1ccc(C(=O)Nc2cccc(-c3nc(N4CCOCC4)c4oc5ncccc5c4n3)c2)cn1 (10 µM),0,0,0,3,0,4,0,0,0,0
NC(=O)c1sc2c([N+](=O)[O-])cc(C(F)(F)F)cc2[n+]1[O-] [Cyclapolin 9] (10 µM),0,0,0,0,0,0,0,0,–,0
NC(=O)c1ccccc1Nc1ccnc(Nc2cccc(O)c2)n1 (10 µM),3,0,0,0,0,4,2,2,–,0
Cn1c(N2CCO[C@@H](c3ccc(F)cc3)C2)nc(-c2ccncn2)cc1=O (10 µM),0,0,0,0,0,0,0,0,0,0
COc1cc2c(cc1OC)[C@@H]1C(=O)c3ccc4c(c3O[C@@H]1CO2)C=CC(C)(C)O4 [Deguelin] (10 µM),0,0,0,0,0,0,0,0,0,0
C[C@H](Nc1cc2c(-c3ccc4c(c3)OCO4)noc2cn1)c1ccccc1 (10 µM),0,0,0,0,0,0,0,0,–,0
Cc1ccc(NC(=O)N2CCN(c3nc(N)nc4sc(-c5cccnc5)nc34)CC2)cc1 [PI4KIII beta inhibitor 3] (10 µM),0,0,0,0,0,0,0,–,0,0

# Part of the list above with just number of time points [6], number of time points [4] and number of time points [7].
Compound	number of time points [6]	number of time points [4]	number of time points [7]
N#Cc1cc(N2CCC(C(=O)N3N=CC[C@H]3c3cc(F)cc(F)c3)CC2)ncn1 (10 µM)	0	0	0
NC(=O)c1ccccc1Nc1ccnc(Nc2cccc(O)c2)n1 (10 µM)	4	0	2

# The list goes on:

Compound,number of time points [1],number of time points [2],number of time points [3],number of time points [4],number of time points [5],number of time points [6],number of time points [7],number of time points [8],number of time points [9],number of time points [10]
CN1CCN(c2ccc(-n3cc(-c4ccncc4OCC4CCNCC4)cn3)cc2)CC1 [MELK-8a (hydrochloride)] (10 µM),0,0,0,2,0,3,0,2,3,3
CC1=CC(=O)C(C(C)C)=C/C1=N/OC(=O)c1ccccc1C [Poloxin] (2.5 µM),0,0,0,0,0,0,0,0,–,0
CCc1cc(Nc2nccc(-c3c(-c4ccc(OC)c(C(=O)Nc5c(F)cccc5F)c4)nc4ccccn34)n2)c(OC)cc1N1CCC(N2CCN(S(C)(=O)=O)CC2)CC1 (2.5 µM),4,0,0,0,0,0,0,0,0,0
CC(C)n1cnc2c(Nc3cccc(Cl)c3)nc(N[C@H]3CCCC[C@@H]3N)nc21 (2.5 µM),0,0,0,0,0,0,0,0,0,0
Fc1ccc(Cl)cc1-c1nc(Nc2ccncc2)c2nccnc2n1 (10 µM),0,0,0,0,0,0,0,0,0,0
CO[C@@H]1[C@H](N(C)C(=O)c2ccccc2)C[C@H]2O[C@]1(C)n1c3ccccc3c3c4c(c5c6ccccc6n2c5c31)C(=O)NC4 [Midostaurin] (2.5 µM),–,0,0,0,0,0,0,0,0,0
CN1CCC(Nc2nc(Nc3ccc(Oc4ccccc4)cc3)c3c(=O)[nH]cc(Br)c3n2)CC1 (2.5 µM),0,0,0,0,0,0,0,0,0,0
Cc1nc2c(NCc3cccc(S(C)(=O)=O)c3)nccn2c1-c1ccc(O)c(F)c1 (10 µM),0,0,0,0,0,0,0,–,0,0
COc1ccc(-c2cc(=O)c3c(O)cc(O)cc3o2)cc1-c1c(O)cc(O)c2c(=O)cc(-c3ccc(O)cc3)oc12 [Bilobetin] (2.5 µM),0,0,0,0,0,0,0,0,0,0
Cc1n[nH]c2ncc(C(=O)N3CCC[C@H]3c3ccc(Cl)cc3)cc12 (10 µM),0,0,0,0,0,0,0,0,0,0
O=C(O)/C=C(\CCc1ccc(Cl)cc1)c1ccccc1 (10 µM),0,0,0,0,0,–,0,0,0,0
CN1CCC(Nc2ccc(C(=O)Nc3cc(-c4ccc5c(c4)OCO5)[nH]n3)cc2)CC1 (10 µM),–,0,0,0,0,1,0,0,0,0
O=c1c(O)c(-c2ccc(O)c(O)c2)oc2cc(O)c(O)c(O)c12 [Quercetagetin] (10 µM),0,0,0,0,0,0,0,0,0,0
CS(=O)(=O)c1cccc(CNc2nc(Nc3ccc4c(c3)CCC(=O)N4)ncc2C(F)(F)F)c1 (10 µM),0,0,0,0,0,0,0,0,0,0
C=CC(=O)N1CCC(c2ccc(C(N)=O)c(-c3ccc(Oc4ccccc4)cc3)n2)CC1 [Orelabrutinib] (2.5 µM),0,0,0,0,0,0,0,0,0,0
Cc1cnc(Nc2ccc(F)cc2Cl)nc1-c1c[nH]c(C(=O)N[C@H](CO)c2cccc(Cl)c2)c1 (10 µM),0,0,0,0,0,0,0,0,0,0
NCCNS(=O)(=O)c1ccc(Cl)c2ccncc12 [CKI-7 (free base)] (10 µM),0,0,0,0,0,0,0,0,0,0
